Measured values from the supplement of paper PMC12823440, “Inhibitors supercharge kinase turnover through native proteolytic circuits” (Nature, 2025).
Structures can show the parent of a compound that is named as a salt. Some of the results follow. The calls rarely recur for the same compound in another form.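 In K562 cells expressing nanoluciferase-fused kinases, luminescence was recorded at 4 h intervals between 2 and 18 h, normalized as percent of control with DMSO at 100% and a positive control at 0%. A significant (2 sigma) signal drop marks a time point as decreased. The authors' rule for a hit is not shown and takes in more than the number of time points.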

By UniProt entry, the sequences of proteins in these tests, tags left out.
UniProt P29317, whole entry: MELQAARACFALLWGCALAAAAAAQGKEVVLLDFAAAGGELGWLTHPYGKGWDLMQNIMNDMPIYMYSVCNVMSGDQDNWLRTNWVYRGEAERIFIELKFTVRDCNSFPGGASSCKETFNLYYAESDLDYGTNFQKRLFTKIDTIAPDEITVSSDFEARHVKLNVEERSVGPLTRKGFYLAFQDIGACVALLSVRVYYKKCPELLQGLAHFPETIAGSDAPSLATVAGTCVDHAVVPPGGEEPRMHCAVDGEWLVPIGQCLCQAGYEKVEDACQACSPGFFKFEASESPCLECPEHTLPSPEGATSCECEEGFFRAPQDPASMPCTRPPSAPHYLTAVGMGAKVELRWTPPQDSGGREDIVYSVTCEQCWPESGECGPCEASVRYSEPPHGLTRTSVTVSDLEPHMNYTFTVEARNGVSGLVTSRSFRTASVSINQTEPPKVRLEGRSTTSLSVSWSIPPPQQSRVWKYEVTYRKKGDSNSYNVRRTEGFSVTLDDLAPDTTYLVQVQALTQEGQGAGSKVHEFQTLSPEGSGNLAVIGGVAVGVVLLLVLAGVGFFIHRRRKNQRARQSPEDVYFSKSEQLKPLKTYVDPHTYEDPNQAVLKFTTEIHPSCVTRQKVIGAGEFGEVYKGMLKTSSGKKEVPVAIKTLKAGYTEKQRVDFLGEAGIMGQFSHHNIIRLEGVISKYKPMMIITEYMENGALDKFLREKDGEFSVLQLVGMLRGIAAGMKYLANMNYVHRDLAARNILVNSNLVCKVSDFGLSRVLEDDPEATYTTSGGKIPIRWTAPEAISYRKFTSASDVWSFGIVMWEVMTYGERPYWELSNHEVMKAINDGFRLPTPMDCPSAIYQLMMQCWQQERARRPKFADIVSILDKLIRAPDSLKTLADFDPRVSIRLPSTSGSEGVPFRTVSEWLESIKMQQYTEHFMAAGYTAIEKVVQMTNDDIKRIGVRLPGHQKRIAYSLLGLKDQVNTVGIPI
UniProt P21860, whole entry: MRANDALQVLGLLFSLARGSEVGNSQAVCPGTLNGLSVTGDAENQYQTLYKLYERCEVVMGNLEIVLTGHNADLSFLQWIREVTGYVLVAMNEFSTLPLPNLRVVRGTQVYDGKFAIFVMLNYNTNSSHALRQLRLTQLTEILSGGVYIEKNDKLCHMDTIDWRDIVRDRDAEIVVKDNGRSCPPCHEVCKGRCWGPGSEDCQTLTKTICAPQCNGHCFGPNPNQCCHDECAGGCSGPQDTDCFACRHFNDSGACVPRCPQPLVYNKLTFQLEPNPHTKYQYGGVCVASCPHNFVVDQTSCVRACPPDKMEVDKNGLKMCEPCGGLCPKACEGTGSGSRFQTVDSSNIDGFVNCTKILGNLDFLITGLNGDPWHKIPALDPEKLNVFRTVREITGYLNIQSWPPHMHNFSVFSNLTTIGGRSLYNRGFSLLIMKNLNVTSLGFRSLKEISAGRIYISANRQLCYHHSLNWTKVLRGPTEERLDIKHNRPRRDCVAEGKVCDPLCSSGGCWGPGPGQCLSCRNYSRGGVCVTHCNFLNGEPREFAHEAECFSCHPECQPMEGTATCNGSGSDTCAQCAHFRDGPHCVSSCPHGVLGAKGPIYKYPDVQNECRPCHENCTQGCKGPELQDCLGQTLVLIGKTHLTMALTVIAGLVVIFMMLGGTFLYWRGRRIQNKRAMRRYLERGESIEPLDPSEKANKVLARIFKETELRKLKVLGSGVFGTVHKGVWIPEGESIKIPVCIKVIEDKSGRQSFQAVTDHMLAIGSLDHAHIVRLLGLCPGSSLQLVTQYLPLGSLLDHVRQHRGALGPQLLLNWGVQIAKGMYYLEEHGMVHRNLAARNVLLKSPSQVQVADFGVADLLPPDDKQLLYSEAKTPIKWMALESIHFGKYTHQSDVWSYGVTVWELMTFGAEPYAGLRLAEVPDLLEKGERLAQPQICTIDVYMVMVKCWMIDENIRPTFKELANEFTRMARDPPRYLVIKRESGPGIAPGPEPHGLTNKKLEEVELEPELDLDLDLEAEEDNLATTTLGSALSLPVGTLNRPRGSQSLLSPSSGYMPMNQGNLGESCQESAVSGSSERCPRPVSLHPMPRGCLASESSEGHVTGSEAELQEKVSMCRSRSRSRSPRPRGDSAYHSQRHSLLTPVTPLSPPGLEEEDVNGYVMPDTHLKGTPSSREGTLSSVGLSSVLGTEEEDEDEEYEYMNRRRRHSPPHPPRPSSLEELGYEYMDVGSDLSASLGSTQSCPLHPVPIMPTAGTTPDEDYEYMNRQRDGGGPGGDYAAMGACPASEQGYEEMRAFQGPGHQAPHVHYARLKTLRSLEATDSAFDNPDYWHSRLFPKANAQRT
UniProt Q15303, whole entry R711C: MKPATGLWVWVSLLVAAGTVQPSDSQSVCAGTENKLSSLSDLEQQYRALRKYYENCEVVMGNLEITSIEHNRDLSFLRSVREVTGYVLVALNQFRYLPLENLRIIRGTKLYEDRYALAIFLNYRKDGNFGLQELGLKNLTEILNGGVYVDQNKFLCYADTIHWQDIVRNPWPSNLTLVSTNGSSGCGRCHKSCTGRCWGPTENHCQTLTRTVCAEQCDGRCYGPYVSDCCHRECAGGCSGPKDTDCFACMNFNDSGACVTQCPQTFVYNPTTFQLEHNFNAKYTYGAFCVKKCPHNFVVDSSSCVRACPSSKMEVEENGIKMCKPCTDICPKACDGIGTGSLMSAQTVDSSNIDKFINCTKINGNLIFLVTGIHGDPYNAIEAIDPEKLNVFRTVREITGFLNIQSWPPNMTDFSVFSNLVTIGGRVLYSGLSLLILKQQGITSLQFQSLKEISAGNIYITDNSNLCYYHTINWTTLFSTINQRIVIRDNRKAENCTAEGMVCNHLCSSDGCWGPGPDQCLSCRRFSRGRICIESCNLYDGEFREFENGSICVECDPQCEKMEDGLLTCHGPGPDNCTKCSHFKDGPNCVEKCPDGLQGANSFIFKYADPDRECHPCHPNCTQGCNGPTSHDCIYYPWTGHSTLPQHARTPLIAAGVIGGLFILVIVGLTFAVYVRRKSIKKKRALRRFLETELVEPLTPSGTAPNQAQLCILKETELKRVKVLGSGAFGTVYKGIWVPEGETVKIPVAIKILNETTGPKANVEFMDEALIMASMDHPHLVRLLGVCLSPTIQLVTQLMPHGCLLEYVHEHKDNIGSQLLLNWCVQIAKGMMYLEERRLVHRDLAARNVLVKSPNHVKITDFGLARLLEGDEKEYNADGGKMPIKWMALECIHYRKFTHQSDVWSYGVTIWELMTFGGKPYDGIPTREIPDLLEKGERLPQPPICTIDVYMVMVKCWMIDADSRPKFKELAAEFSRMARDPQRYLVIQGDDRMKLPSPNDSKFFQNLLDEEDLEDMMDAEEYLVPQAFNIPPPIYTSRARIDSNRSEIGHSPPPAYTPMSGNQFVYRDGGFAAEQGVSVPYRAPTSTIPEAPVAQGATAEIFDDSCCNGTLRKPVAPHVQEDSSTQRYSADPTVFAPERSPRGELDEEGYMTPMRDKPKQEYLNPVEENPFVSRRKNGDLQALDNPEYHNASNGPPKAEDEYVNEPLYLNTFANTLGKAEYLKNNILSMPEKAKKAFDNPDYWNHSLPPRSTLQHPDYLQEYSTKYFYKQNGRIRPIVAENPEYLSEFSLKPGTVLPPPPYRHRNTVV

Columns and labels:
Experiment in all cases: kinase-Nluc reporter destabilization hit call (1 = scored as downregulated) (binary); higher = compound decreases kinase abundance
Details in all cases: K562; 2-18 h
EPHA2 = EPHA2 (UniProt P29317)
ERBB3 = ERBB3 (UniProt P21860)
[1] = molecular target: ERBB4_R711C (clone: ERBB4_mut) (UniProt Q15303)
EGFR = EGFR (UniProt P00533)
EGFR_G719S_T790M = EGFR_G719S_T790M (UniProt P00533)
EGFR_L718V = EGFR_L718V (UniProt P00533)
EGFR_L858R = EGFR_L858R (UniProt P00533)
EGFR_L861Q = EGFR_L861Q (UniProt P00533)
EGFR_T790M = EGFR_T790M (UniProt P00533)
EGFR_G719S = EGFR_G719S (UniProt P00533)

| Compound | kinase-Nluc reporter destabilization hit call (EPHA2) | kinase-Nluc reporter destabilization hit call (ERBB3) | kinase-Nluc reporter destabilization hit call [1] | kinase-Nluc reporter destabilization hit call (EGFR) | kinase-Nluc reporter destabilization hit call (EGFR_G719S_T790M) | kinase-Nluc reporter destabilization hit call (EGFR_L718V) | kinase-Nluc reporter destabilization hit call (EGFR_L858R) | kinase-Nluc reporter destabilization hit call (EGFR_L861Q) | kinase-Nluc reporter destabilization hit call (EGFR_T790M) | kinase-Nluc reporter destabilization hit call (EGFR_G719S) |
| --- | --- | --- | --- | --- | --- | --- | --- | --- | --- | --- |
| Cc1c[nH]c2nccc(Oc3c(F)cc(Nc4cc(Cl)nc(N)n4)cc3F)c12 (10 µM) | inactive: 0 | inactive: 0 | inactive: 0 | – | – | – | – | – | – | – |
| CC(C)C(=O)Nc1ncc(-c2cc(C(F)F)nn2-c2c(Cl)cccc2Cl)s1 (10 µM) | inactive: 0 | inactive: 0 | inactive: 0 | inactive: 0 | inactive: 0 | inactive: 0 | inactive: 0 | inactive: 0 | inactive: 0 | – |
| CC(C)n1cnc2c(NCc3cccc(C(F)(F)F)c3)ncnc21 [Longdaysin] (10 µM) | inactive: 0 | inactive: 0 | inactive: 0 | inactive: 0 | inactive: 0 | inactive: 0 | inactive: 0 | inactive: 0 | – | inactive: 0 |
| COc1nccc(-c2c(-c3ccc(F)cc3)ncn2C2CCC(O)CC2)n1 (stereo unspecified) (10 µM) | inactive: 0 | inactive: 0 | inactive: 0 | – | – | – | – | – | – | – |
| O=C(Nc1cc(C(F)(F)F)ccc1N1CCN(Cc2ccccn2)CC1)c1ccc(-c2ccncc2)o1 (10 µM) | inactive: 0 | inactive: 0 | inactive: 0 | inactive: 0 | inactive: 0 | inactive: 0 | inactive: 0 | inactive: 0 | inactive: 0 | inactive: 0 |
| COc1c(CC=C(C)C)c(O)cc2oc(=O)c(-c3ccc(O)cc3O)cc12 [Glycycoumarin] (10 µM) | inactive: 0 | inactive: 0 | inactive: 0 | inactive: 0 | inactive: 0 | inactive: 0 | inactive: 0 | inactive: 0 | – | inactive: 0 |
| Cc1nc(N)sc1-c1ccnc(Nc2ccc(N3CCOCC3)cc2)n1 (10 µM) | inactive: 0 | inactive: 0 | inactive: 0 | – | – | – | – | – | – | – |
| CCCCC[C@H](O)CC(=O)CCc1ccc(O)c(OC)c1 [[6]-Gingerol] (10 µM) | inactive: 0 | inactive: 0 | inactive: 0 | – | inactive: 0 | inactive: 0 | inactive: 0 | inactive: 0 | inactive: 0 | inactive: 0 |
| COc1cc2ncnc(Nc3cccc(O)c3)c2cc1OC (10 µM) | inactive: 0 | inactive: 0 | inactive: 0 | inactive: 0 | inactive: 0 | inactive: 0 | inactive: 0 | inactive: 0 | inactive: 0 | inactive: 0 |
| O=C([O-])c1ccccc1O.[Na+] [Sodium Salicylate] (10 µM) | inactive: 0 | inactive: 0 | inactive: 0 | inactive: 0 | inactive: 0 | inactive: 0 | inactive: 0 | inactive: 0 | – | inactive: 0 |
| C[C@H](NC(=O)/C(C#N)=C/c1cccc(Br)n1)c1ccccc1 (2.5 µM) | inactive: 0 | inactive: 0 | inactive: 0 | inactive: 0 | inactive: 0 | inactive: 0 | inactive: 0 | inactive: 0 | – | inactive: 0 |
| CC(C)Oc1cc(Nc2nc(N[C@@H](C)c3ccc(F)cn3)ncc2Cl)n[nH]1 (10 µM) | inactive: 0 | inactive: 0 | inactive: 0 | inactive: 0 | inactive: 0 | inactive: 0 | inactive: 0 | inactive: 0 | inactive: 0 | inactive: 0 |
| C/C=C(/C)C(=O)O[C@H]1Cc2cc3ccc(=O)oc3cc2OC1(C)C [Decursinol angelate] (10 µM) | inactive: 0 | inactive: 0 | inactive: 0 | inactive: 0 | inactive: 0 | inactive: 0 | inactive: 0 | inactive: 0 | – | inactive: 0 |
| CCN(CC)CCCCNc1ncc2cc(-c3c(Cl)cccc3Cl)c(NC(=O)NC(C)(C)C)nc2n1 (2.5 µM) | inactive: 0 | inactive: 0 | inactive: 0 | – | – | – | – | – | – | – |
| Cc1cc(C(=O)Nc2cccc(C(=O)Nc3cccc(C(F)(F)F)c3)c2)on1 (10 µM) | inactive: 0 | inactive: 0 | inactive: 0 | inactive: 0 | inactive: 0 | inactive: 0 | inactive: 0 | inactive: 0 | – | inactive: 0 |
| Oc1ccc(-c2nc(-c3ccc(F)cc3)c(-c3ccncc3)[nH]2)cc1 (2.5 µM) | inactive: 0 | inactive: 0 | inactive: 0 | – | – | – | – | – | – | – |
| Cc1ccc(S(=O)(=O)Nc2nc3ccccc3nc2Nc2ccc3nsnc3c2)cc1 [Pilaralisib analogue] (10 µM) | inactive: 0 | active: 1 | active: 1 | inactive: 0 | inactive: 0 | inactive: 0 | active: 1 | inactive: 0 | – | inactive: 0 |
| Cc1cccc(Cn2nc(C3CC3)c3c(NC(=O)c4cnc5cc(OCCN6CCN(C)CC6)ccn45)cccc32)n1 (10 µM) | inactive: 0 | inactive: 0 | inactive: 0 | inactive: 0 | inactive: 0 | inactive: 0 | inactive: 0 | inactive: 0 | inactive: 0 | inactive: 0 |

| Compound | kinase-Nluc reporter destabilization hit call (EPHA2) | kinase-Nluc reporter destabilization hit call (ERBB3) | kinase-Nluc reporter destabilization hit call [1] | kinase-Nluc reporter destabilization hit call (EGFR) | kinase-Nluc reporter destabilization hit call (EGFR_G719S_T790M) | kinase-Nluc reporter destabilization hit call (EGFR_L718V) | kinase-Nluc reporter destabilization hit call (EGFR_L858R) | kinase-Nluc reporter destabilization hit call (EGFR_L861Q) | kinase-Nluc reporter destabilization hit call (EGFR_T790M) | kinase-Nluc reporter destabilization hit call (EGFR_G719S) |
| --- | --- | --- | --- | --- | --- | --- | --- | --- | --- | --- |
| COc1cc2ncn(-c3cc(OCc4ccccc4C(F)(F)F)c(C(N)=O)s3)c2cc1OC (10 µM) | inactive: 0 | inactive: 0 | inactive: 0 | inactive: 0 | inactive: 0 | inactive: 0 | inactive: 0 | inactive: 0 | inactive: 0 | inactive: 0 |
| CC(C)c1cnn2c(NCc3ccccc3)cc(NC[C@H]3CCNC[C@@H]3O)nc12 [Samuraciclib (hydrochloride)] (10 µM) | inactive: 0 | inactive: 0 | inactive: 0 | inactive: 0 | inactive: 0 | inactive: 0 | inactive: 0 | inactive: 0 | inactive: 0 | inactive: 0 |
| Cc1cc(CS(=O)(=O)c2ccccc2)cc(OCc2ccc(CN3CCC[C@@H]3CO)cc2)c1 [PF-543 (Citrate)] (10 µM) | inactive: 0 | inactive: 0 | inactive: 0 | inactive: 0 | inactive: 0 | inactive: 0 | inactive: 0 | inactive: 0 | inactive: 0 | inactive: 0 |
| Cc1ccc(F)c(NC(=O)Nc2ccc(-c3cccc4[nH]nc(N)c34)cc2)c1 [Linifanib] (2.5 µM) | inactive: 0 | inactive: 0 | inactive: 0 | inactive: 0 | inactive: 0 | inactive: 0 | inactive: 0 | inactive: 0 | inactive: 0 | inactive: 0 |
| C=CC(=O)N1CC[C@H](n2nc(C#Cc3cc(OC)cc(OC)c3)c3c(N)ncnc32)C1 [Futibatinib] (10 µM) | inactive: 0 | inactive: 0 | inactive: 0 | inactive: 0 | inactive: 0 | inactive: 0 | inactive: 0 | inactive: 0 | inactive: 0 | inactive: 0 |
| CNC(=O)c1cccc2cc(Oc3ccnc4cc(OCC5(N)CC5)c(OC)cc34)ccc12 [Lucitanib] (10 µM) | inactive: 0 | inactive: 0 | inactive: 0 | inactive: 0 | inactive: 0 | inactive: 0 | inactive: 0 | inactive: 0 | inactive: 0 | inactive: 0 |
| CCn1c(=O)c2cc(C(N)=O)c(N)nc2n(C2CC2)c1=O (10 µM) | inactive: 0 | inactive: 0 | inactive: 0 | inactive: 0 | inactive: 0 | inactive: 0 | inactive: 0 | inactive: 0 | inactive: 0 | inactive: 0 |
| CN1CCN(C2CCN(C(=O)Nc3cc(Oc4ccc(NC(=O)C5(C(=O)Nc6ccc(F)cc6)CC5)c(F)c4)ccn3)CC2)CC1 [Golvatinib] (2.5 µM) | – | inactive: 0 | inactive: 0 | inactive: 0 | inactive: 0 | inactive: 0 | inactive: 0 | inactive: 0 | inactive: 0 | inactive: 0 |
| NC(=O)c1ccc2nc(-c3ccc(Oc4ccc(Cl)cc4)cc3)[nH]c2c1 (10 µM) | inactive: 0 | inactive: 0 | inactive: 0 | inactive: 0 | inactive: 0 | inactive: 0 | inactive: 0 | inactive: 0 | inactive: 0 | inactive: 0 |
| CCOc1ccn(-c2ccc(F)cc2)c(=O)c1C(=O)Nc1ccc(Oc2ccnc(N)c2Cl)c(F)c1 (10 µM) | inactive: 0 | inactive: 0 | inactive: 0 | – | – | – | – | – | – | – |
| O=C1Cc2c([nH]c3ccc(Br)cc23)-c2ncccc2N1 [1-Azakenpaullone] (10 µM) | inactive: 0 | inactive: 0 | inactive: 0 | – | – | – | – | – | – | – |
| Cc1c(Cn2c(C)nc3c(C(=O)O)cc(N4CCOCC4)cc32)cccc1C(F)(F)F (10 µM) | inactive: 0 | inactive: 0 | inactive: 0 | inactive: 0 | – | – | – | – | – | inactive: 0 |
| CCCCOc1c(C(=O)c2c(F)cc(C)cc2F)c[nH]c2nncc1-2 (10 µM) | inactive: 0 | inactive: 0 | inactive: 0 | inactive: 0 | inactive: 0 | inactive: 0 | inactive: 0 | inactive: 0 | – | inactive: 0 |
| Cc1c[nH]c2ccccc12 [Skatole] (10 µM) | inactive: 0 | inactive: 0 | inactive: 0 | inactive: 0 | inactive: 0 | inactive: 0 | inactive: 0 | inactive: 0 | – | inactive: 0 |
| CCn1cc(-c2ccnc3[nH]c(-c4cccc(CN(C)C)c4)cc23)c(-c2ccc(NC(=O)N(C)C)cc2)n1 (2.5 µM) | inactive: 0 | inactive: 0 | inactive: 0 | inactive: 0 | inactive: 0 | inactive: 0 | inactive: 0 | inactive: 0 | inactive: 0 | inactive: 0 |
| FC(F)(F)c1ccc(CNc2ccc(Cc3c[nH]c4ncc(Cl)cc34)cn2)cc1 (10 µM) | inactive: 0 | inactive: 0 | inactive: 0 | inactive: 0 | inactive: 0 | inactive: 0 | inactive: 0 | inactive: 0 | – | inactive: 0 |
| COCCNCCc1cccc(Nc2ncc3c(n2)-c2ccccc2[C@H](c2ccccc2F)C3)c1 [Derazantinib] (2.5 µM) | inactive: 0 | inactive: 0 | inactive: 0 | inactive: 0 | inactive: 0 | inactive: 0 | inactive: 0 | inactive: 0 | inactive: 0 | inactive: 0 |
| COc1cc(Nc2ncc3c(n2)-c2ccc(Cl)cc2C(c2c(F)cccc2OC)=NC3)ccc1C(=O)O [Alisertib] (2.5 µM) | inactive: 0 | inactive: 0 | inactive: 0 | – | – | – | – | – | – | – |

Record cards (already shown). Order of values: kinase-Nluc reporter destabilization hit call (EPHA2)	kinase-Nluc reporter destabilization hit call (ERBB3)	kinase-Nluc reporter destabilization hit call [1]	kinase-Nluc reporter destabilization hit call (EGFR)	kinase-Nluc reporter destabilization hit call (EGFR_G719S_T790M)	kinase-Nluc reporter destabilization hit call (EGFR_L718V)	kinase-Nluc reporter destabilization hit call (EGFR_L858R)	kinase-Nluc reporter destabilization hit call (EGFR_L861Q)	kinase-Nluc reporter destabilization hit call (EGFR_T790M)	kinase-Nluc reporter destabilization hit call (EGFR_G719S)
COc1cc(Nc2ncc3c(n2)-c2ccc(Cl)cc2C(c2c(F)cccc2OC)=NC3)ccc1C(=O)O [Alisertib] (2.5 µM) is entered as inactive: 0	inactive: 0	inactive: 0	–	–	–	–	–	–	–
COCCNCCc1cccc(Nc2ncc3c(n2)-c2ccccc2[C@H](c2ccccc2F)C3)c1 [Derazantinib] (2.5 µM) is entered as inactive: 0	inactive: 0	inactive: 0	inactive: 0	inactive: 0	inactive: 0	inactive: 0	inactive: 0	inactive: 0	inactive: 0
COc1cc2ncn(-c3cc(OCc4ccccc4C(F)(F)F)c(C(N)=O)s3)c2cc1OC (10 µM) is entered as inactive: 0	inactive: 0	inactive: 0	inactive: 0	inactive: 0	inactive: 0	inactive: 0	inactive: 0	inactive: 0	inactive: 0
